Data: publication doi:10.1101/2023.01.17.524371
No constants are given. Whether binding was seen depends on the method and setting. Binding seen in cells or lysates may run through a third protein. Some binding calls cover weakened binding; strength is not graded here.

Amino acid sequences for entries named in this document (tags omitted).
UniProt Q13263: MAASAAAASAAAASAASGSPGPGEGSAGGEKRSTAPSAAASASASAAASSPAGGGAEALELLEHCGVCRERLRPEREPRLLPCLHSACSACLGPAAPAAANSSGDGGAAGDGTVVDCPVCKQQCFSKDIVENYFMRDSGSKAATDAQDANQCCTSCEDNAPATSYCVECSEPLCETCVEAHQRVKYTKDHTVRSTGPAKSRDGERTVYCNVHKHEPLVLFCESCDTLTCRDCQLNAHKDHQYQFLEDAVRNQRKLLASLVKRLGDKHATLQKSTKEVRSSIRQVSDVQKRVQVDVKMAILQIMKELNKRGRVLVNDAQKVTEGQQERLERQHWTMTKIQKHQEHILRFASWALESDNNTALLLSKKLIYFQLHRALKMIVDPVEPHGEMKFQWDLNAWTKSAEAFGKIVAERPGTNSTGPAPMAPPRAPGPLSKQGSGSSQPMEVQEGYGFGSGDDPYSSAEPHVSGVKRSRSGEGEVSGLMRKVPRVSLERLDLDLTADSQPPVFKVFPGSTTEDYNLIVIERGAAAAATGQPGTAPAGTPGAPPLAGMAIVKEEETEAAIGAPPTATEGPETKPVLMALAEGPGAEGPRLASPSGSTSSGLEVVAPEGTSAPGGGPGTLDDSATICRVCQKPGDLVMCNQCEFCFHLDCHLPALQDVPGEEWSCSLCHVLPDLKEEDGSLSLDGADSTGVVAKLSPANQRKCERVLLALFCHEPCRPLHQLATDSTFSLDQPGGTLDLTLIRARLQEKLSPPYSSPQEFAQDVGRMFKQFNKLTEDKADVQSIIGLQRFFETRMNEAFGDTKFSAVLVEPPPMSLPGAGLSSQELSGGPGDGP
UniProt Q13547: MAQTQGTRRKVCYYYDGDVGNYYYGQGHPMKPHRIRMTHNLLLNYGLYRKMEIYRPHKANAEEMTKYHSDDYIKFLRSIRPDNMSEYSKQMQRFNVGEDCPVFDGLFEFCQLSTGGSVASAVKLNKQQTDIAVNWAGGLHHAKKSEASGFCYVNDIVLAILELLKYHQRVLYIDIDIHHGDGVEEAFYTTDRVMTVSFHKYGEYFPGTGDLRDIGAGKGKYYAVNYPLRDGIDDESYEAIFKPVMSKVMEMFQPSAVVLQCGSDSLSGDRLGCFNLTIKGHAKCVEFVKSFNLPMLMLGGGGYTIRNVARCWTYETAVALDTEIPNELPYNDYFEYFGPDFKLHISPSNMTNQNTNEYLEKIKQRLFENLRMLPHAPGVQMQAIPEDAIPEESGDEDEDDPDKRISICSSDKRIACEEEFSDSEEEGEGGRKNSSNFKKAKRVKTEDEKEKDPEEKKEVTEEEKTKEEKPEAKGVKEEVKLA

Target: TRIM28 (human (endogenous in HCT-15)) (UniProt Q13263)
Experiment: co-IP

HDAC1 (from UniProt Q13547 1-482)
binding: binds
